No constants are given. Whether binding was seen depends on the method and setting. Some results given as binding are weak or reduced against the parent protein; the word gives no strength.
T1: MED22 (human) (UniProt Q15528)
T1 sequence: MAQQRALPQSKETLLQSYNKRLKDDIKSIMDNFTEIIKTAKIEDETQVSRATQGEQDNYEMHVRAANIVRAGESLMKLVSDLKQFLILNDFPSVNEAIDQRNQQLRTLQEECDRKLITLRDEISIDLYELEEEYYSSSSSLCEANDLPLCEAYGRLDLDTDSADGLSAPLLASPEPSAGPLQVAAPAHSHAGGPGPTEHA

B1: MED28 (protein, UniProt Q9H204 1-178)
chain: MAAPLGGMFSGQPPGPPQAPPGLPGQASLLQAAPGAPRPSSSTLVDELESSFEACFASLVSQDYVNGTDQEEIRTGVDQCIQKFLDIARQTECFFLQKRLQLSVQKPEQVIKEDVSELRNELQRKDALVQKHLTKLRHWQQVLEDINVQHKKPADIPQGSLAYLEQASANIPAPLKPT
B2: MED30 (protein, UniProt Q96HR3 1-178)
chain: MSTPPLAASGMAPGPFAGPQAQQAAREVNTASLCRIGQETVQDIVYRTMEIFQLLRNMQLPNGVTYHTGTYQDRLTKLQDNLRQLSVLFRKLRLVYDKCNENCGGMDPIPVEQLIPYVEEDGSKNDDRAGPPRFASEERREIAEVNKKLKQKNQQLKQIMDQLRNLIWDINAMLAMRN
B3: MED11 (protein, UniProt Q9P086 1-117)
chain: MATYSLANERLRALEDIEREIGAILQNAGTVILELSKEKTNERLLDRQAAAFTASVQHVEAELSAQIRYLTQVATGQPHEGSSYSSRKDCQMALKRVDYARLKLSDVARTCEQMLEN

These binders were tested against T1, MED22 (human) (assay: cryo-EM structure).
For B1, the binding was “binds”.
B2 was tested, and the binding was “binds”.
In the case of B3, the binding is reported as “binds”.

— article doi:10.1101/2021.03.11.435010
